Measured values: the supplement of paper PMC6411743
± gives the standard deviation of the averaged measurements. The entries are a selection whose mix differs from that of the whole data set.

The chains behind the UniProt entries cited, without tags or fusion partners. Where a name states a change or a piece, a line headed by the entry shows the natural chain unless it says otherwise.
UniProt Q9NQT5, whole entry: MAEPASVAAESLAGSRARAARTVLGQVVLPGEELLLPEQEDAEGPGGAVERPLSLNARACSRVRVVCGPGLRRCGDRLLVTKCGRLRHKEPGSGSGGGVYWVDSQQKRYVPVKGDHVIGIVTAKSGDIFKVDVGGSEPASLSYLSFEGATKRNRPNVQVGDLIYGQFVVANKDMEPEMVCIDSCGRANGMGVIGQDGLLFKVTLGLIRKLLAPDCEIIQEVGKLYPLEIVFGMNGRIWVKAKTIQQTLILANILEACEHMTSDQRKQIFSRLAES
UniProt Q9NVH0: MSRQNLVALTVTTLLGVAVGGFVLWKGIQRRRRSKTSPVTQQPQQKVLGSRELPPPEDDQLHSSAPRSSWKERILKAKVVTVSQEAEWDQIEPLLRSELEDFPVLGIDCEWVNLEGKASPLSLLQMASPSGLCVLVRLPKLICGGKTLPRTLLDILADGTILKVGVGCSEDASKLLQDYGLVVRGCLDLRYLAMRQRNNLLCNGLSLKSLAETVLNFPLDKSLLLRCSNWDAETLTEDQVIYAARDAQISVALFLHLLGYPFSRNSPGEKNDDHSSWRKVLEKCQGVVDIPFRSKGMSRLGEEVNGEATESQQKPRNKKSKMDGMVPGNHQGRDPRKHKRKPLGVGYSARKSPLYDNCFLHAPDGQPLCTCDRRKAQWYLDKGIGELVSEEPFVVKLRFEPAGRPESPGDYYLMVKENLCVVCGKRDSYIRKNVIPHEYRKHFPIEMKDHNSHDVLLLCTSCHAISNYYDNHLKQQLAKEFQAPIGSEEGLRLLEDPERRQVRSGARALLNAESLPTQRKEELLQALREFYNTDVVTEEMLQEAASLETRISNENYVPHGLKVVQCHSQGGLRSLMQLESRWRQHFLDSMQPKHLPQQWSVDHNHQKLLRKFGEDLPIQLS
UniProt Q9P032: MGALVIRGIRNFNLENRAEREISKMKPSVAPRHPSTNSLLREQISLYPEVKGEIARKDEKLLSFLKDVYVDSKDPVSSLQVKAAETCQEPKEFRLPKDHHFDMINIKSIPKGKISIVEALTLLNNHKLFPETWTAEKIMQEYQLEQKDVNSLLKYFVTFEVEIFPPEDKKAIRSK
UniProt Q9NXR5: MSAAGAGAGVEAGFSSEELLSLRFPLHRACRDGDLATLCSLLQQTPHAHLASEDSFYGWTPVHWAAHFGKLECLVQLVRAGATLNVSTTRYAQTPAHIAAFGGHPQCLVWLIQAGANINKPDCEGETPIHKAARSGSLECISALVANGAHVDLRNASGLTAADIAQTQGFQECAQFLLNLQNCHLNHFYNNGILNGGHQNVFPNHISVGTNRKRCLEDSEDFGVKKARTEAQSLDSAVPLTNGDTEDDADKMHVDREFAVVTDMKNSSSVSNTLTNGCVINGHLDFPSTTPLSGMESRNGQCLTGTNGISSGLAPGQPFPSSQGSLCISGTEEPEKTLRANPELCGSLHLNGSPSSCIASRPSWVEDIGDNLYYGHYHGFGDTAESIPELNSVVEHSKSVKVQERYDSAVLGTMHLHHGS
UniProt Q9P0I2: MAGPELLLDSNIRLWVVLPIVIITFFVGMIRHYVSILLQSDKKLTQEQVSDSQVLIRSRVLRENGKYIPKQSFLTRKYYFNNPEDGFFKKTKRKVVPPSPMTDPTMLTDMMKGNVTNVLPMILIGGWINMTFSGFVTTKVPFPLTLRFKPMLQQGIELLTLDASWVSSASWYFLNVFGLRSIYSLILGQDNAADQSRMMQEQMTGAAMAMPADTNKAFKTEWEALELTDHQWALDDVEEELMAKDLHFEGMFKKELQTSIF
UniProt Q9NWZ8: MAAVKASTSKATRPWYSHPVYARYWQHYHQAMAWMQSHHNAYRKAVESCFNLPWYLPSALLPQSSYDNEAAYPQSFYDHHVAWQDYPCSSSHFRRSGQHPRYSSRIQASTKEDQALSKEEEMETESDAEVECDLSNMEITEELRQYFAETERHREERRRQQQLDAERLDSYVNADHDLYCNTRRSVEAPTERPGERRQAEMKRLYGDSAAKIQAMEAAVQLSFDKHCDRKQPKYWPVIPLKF
UniProt Q9NQY0: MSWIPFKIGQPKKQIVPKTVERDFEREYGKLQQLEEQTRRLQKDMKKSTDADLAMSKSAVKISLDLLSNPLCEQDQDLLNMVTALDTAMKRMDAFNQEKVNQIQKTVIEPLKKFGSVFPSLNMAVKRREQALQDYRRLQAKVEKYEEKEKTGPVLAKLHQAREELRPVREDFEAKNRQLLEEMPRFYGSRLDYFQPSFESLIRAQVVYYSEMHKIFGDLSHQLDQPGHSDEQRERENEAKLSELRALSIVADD
UniProt Q9NS91, whole entry: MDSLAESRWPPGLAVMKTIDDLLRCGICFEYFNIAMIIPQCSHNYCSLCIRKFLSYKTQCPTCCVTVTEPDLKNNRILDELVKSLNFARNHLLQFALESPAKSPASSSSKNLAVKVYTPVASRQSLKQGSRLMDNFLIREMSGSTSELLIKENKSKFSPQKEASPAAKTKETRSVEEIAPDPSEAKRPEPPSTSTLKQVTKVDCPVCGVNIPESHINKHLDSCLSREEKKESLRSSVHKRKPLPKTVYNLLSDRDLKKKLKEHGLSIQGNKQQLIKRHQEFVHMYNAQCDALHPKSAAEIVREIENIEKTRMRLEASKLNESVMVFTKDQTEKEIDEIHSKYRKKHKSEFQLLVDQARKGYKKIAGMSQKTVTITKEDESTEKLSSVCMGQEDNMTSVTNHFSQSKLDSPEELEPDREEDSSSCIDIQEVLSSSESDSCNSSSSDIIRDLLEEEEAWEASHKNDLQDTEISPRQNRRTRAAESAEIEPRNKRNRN
UniProt Q9NWZ5: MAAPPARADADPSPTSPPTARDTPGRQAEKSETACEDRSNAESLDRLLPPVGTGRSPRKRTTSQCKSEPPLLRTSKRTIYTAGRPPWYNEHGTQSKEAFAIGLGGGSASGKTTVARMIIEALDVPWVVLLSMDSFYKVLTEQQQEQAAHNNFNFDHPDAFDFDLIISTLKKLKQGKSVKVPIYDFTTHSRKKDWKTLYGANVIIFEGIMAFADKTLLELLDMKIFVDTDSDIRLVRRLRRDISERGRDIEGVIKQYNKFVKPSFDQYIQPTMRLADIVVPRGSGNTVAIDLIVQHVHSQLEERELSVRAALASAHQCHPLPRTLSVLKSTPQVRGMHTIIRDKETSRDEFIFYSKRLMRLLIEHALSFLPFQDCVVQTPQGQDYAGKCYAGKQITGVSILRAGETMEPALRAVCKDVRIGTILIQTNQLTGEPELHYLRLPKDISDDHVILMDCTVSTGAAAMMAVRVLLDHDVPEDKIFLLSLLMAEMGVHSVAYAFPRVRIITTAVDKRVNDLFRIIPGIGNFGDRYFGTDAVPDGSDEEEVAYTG
UniProt Q9NW13: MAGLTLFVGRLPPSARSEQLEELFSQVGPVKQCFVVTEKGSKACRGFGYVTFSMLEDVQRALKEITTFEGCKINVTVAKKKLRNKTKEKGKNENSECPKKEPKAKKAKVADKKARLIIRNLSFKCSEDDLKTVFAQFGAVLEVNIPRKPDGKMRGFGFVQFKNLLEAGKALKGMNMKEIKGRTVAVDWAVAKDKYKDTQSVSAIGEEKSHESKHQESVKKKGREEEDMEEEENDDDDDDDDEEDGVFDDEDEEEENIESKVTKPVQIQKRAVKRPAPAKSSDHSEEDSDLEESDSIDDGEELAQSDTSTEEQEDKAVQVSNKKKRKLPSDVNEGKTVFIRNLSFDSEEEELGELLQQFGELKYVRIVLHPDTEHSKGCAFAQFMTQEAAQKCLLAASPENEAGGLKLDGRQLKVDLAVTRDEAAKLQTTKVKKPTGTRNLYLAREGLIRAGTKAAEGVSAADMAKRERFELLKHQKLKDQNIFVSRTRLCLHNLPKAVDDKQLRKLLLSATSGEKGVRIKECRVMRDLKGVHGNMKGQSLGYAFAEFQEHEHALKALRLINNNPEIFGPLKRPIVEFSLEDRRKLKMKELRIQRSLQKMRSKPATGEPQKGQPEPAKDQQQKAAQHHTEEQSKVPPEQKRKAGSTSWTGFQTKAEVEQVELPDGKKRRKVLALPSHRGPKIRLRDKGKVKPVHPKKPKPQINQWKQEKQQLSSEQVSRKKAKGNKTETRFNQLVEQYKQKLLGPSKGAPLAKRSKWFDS
UniProt Q9NUJ1: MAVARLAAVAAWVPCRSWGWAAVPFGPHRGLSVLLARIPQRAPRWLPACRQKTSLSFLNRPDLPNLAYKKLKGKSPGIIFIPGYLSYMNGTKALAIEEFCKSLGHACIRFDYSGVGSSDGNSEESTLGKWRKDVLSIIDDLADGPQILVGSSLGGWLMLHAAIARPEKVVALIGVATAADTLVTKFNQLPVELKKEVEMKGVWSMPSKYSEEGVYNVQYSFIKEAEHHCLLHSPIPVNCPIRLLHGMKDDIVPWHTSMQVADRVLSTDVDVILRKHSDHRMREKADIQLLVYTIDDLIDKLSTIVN
UniProt Q9P0B6: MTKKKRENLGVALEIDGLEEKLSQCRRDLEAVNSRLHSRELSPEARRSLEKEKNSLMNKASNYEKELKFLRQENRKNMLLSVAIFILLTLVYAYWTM
UniProt Q9NWF9: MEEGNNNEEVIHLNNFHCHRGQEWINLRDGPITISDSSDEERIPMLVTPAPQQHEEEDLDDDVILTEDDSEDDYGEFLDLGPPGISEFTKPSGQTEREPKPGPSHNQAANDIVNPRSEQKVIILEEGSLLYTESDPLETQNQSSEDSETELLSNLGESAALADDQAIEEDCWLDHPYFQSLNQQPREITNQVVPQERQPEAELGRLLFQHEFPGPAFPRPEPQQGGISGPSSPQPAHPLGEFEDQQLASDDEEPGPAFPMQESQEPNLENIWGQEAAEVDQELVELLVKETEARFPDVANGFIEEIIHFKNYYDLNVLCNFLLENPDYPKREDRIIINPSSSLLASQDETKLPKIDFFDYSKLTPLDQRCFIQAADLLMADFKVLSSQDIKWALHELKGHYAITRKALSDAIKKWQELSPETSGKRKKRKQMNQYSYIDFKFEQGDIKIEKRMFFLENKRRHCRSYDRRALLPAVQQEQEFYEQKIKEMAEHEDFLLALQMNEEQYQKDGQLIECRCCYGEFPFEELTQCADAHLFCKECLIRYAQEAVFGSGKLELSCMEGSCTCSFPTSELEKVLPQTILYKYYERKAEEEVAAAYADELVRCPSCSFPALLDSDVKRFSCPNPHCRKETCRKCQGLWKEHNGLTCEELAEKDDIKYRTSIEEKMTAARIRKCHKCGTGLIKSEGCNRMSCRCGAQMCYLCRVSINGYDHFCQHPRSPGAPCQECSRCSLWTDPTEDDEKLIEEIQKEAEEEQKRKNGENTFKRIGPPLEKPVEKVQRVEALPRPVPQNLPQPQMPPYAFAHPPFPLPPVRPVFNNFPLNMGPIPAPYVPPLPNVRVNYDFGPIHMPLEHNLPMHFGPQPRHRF
UniProt Q9NY93: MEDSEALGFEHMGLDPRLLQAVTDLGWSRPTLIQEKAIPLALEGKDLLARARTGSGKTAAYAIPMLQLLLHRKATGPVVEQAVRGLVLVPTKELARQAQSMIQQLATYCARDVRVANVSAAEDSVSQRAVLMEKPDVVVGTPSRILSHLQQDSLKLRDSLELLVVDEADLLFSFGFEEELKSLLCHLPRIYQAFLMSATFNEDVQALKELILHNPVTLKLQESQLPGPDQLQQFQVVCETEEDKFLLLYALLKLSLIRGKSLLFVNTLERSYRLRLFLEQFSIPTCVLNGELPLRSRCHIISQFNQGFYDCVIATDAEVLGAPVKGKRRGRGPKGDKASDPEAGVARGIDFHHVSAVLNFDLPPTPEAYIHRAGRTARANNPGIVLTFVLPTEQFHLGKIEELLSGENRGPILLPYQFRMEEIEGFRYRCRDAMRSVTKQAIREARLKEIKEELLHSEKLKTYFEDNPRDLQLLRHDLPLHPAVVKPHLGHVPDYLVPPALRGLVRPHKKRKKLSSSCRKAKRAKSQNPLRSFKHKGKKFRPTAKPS
UniProt Q9P016: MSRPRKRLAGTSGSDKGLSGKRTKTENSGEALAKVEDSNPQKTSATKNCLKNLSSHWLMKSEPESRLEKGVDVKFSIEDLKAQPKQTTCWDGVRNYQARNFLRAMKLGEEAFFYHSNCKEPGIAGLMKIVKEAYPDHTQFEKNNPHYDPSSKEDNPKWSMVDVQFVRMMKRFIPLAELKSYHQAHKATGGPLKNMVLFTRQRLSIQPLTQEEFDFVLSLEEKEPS
UniProt Q9P031: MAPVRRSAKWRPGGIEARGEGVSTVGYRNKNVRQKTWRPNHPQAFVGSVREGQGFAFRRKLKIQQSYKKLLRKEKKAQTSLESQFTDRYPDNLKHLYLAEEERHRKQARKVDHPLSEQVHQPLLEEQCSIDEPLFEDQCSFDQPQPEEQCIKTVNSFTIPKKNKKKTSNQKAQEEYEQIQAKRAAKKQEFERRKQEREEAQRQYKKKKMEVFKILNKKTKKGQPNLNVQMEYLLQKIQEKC
UniProt Q9NQZ6: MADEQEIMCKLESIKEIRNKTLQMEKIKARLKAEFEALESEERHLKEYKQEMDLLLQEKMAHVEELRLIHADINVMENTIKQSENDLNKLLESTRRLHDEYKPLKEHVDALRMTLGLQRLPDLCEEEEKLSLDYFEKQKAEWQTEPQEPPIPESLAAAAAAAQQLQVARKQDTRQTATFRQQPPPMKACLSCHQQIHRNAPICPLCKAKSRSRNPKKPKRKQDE

Compound: Nc1ncnc2c1ncn2[C@@H]1O[C@H](COP(=O)(O)OP(=O)(O)OP(=O)(O)O)[C@@H](O)[C@H]1O [adenosine triphosphate]
Assay: NP40-soluble protein abundance relative to vehicle (solubility fold change) (ratio); higher = more soluble protein in presence of ATP
In short: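 In three independent experiments, Jurkat crude lysate made by Dounce homogenisation was treated for 10 min at room temperature and then 3 min at 37 °C with eight concentrations ranging from 0.1 to 10 mM. It was then solubilised with 0.8% NP40 plus benzonase for 60 min at 4 °C and ultracentrifuged. The supernatant was TMT-labelled for LC-MS/MS, and each value is the fold change against the detergent-processed vehicle for the same replicate, using vsn-normalised intensities.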

Target	NP40-soluble protein abundance (concentration: 1mM)	NP40-soluble protein abundance (concentration: 2mM)	NP40-soluble protein abundance (concentration: 4mM)	NP40-soluble protein abundance (concentration: 6mM)	NP40-soluble protein abundance (concentration: 8mM)	NP40-soluble protein abundance (concentration: 10mM)
EXOSC3 (UniProt Q9NQT5)	1.04 ± 0.048	1.09 ± 0.024	1.11 ± 0.036	1.16 ± 0.025	1.24 ± 0.013	1.26 ± 0.026
UniProt Q9NVH0 and related entries	1.01 ± 0.063	1 ± 0.024	1.02 ± 0.059	1.03 ± 0.03	1 ± 0.025	1.1 ± 0.067
UniProt Q9P032	0.955 ± 0.053	0.954 ± 0.075	0.938 ± 0.073	0.944 ± 0.062	0.92 ± 0.037	0.911 ± 0.095
UniProt Q9NPG3 and related entries	1.12 ± 0.13	1.07 ± 0.11	1.11 ± 0.066	1.17 ± 0.11	1.12 ± 0.15	1.21 ± 0.077
UniProt Q9NZL9 and related entries	0.984 ± 0.054	0.99 ± 0.041	0.965 ± 0.048	0.978 ± 0.03	0.979 ± 0.052	0.958 ± 0.051
ACTR10 (UniProt Q9NZ32)	0.952 ± 0.019	0.934 ± 0.019	0.934 ± 0.015	0.9048 ± 0.0077	0.932 ± 0.05	0.914 ± 0.051
Q9NPA5 and related entries (UniProt Q9NTW7)	0.992 ± 0.033	0.985 ± 0.065	0.97 ± 0.088	0.919 ± 0.026	1.04 ± 0.043	1.02 ± 0.12
MRPL40 (UniProt Q9NQ50)	1.05 ± 0.15	0.984 ± 0.088	0.998 ± 0.17	1.03 ± 0.3	1.04 ± 0.21	0.97 ± 0.12
UniProt Q9NZ01	1.03 ± 0.15	0.976 ± 0.097	0.964 ± 0.076	0.942 ± 0.076	1.04 ± 0.028	1.02 ± 0.09
UniProt Q9NXR5 and related entries	0.971 ± 0.049	0.929 ± 0.088	1.01 ± 0.11	1.07 ± 0.12	0.931 ± 0.019	0.995 ± 0.064
UniProt Q9P0I2	1.03 ± 0.044	1.05 ± 0.041	1.04 ± 0.035	1.07 ± 0.1	1.02 ± 0.066	1.01 ± 0.037
UniProt Q9NR19 and related entries	0.931 ± 0.01	0.941 ± 0.065	0.949 ± 0.06	0.901 ± 0.067	0.943 ± 0.091	0.917 ± 0.031
GEMIN8 (UniProt Q9NWZ8)	0.978 ± 0.12	0.875 ± 0.14	0.885 ± 0.15	0.9 ± 0.28	0.965 ± 0.2	0.935 ± 0.17
BIN3 (UniProt Q9NQY0)	0.933 ± 0.11	0.962 ± 0.041	0.989 ± 0.14	0.974 ± 0.16	0.934 ± 0.12	0.866 ± 0.19
FASTKD2 (UniProt Q9NYY8)	0.99 ± 0.034	0.982 ± 0.076	0.99 ± 0.027	0.955 ± 0.053	0.996 ± 0.096	0.97 ± 0.057
UniProt Q9NRD1 and related entries	0.852 ± 0.15	0.811 ± 0.11	0.92 ± 0.14	0.904 ± 0.15	0.898 ± 0.12	0.99 ± 0.14
UniProt Q9NVA1 and related entries	0.956 ± 0.099	0.97 ± 0.13	0.978 ± 0.088	0.949 ± 0.12	0.972 ± 0.052	0.959 ± 0.066
UniProt Q9NUP7	0.957 ± 0.037	0.983 ± 0.033	0.955 ± 0.027	0.961 ± 0.03	0.95 ± 0.016	0.944 ± 0.026
ALKBH4 (UniProt Q9NXW9)	1.1 ± 0.17	1.06 ± 0.069	1.01 ± 0.071	1.04 ± 0.078	1.05 ± 0.066	1.03 ± 0.08
TBC1D13 (UniProt Q9NVG8)	1.02 ± 0.071	1.01 ± 0.042	1.01 ± 0.038	0.985 ± 0.077	1.02 ± 0.058	0.985 ± 0.026
TMOD3 (UniProt Q9NYL9)	0.981 ± 0.073	1.01 ± 0.019	1 ± 0.038	1.03 ± 0.064	1.01 ± 0.033	0.963 ± 0.035
RAD18 (UniProt Q9NS91)	1.14 ± 0.028	1.14 ± 0.025	1.18 ± 0.016	1.18 ± 0.021	1.17 ± 0.0083	1.21 ± 0.024
UniProt Q9NR31-2|Q9NR31	0.925 ± 0.1	0.898 ± 0.064	0.856 ± 0.016	0.853 ± 0.12	0.893 ± 0.046	0.865 ± 0.027
MPP6 (UniProt Q9NZW5)	1.03 ± 0.058	1.01 ± 0.03	1.01 ± 0.032	0.983 ± 0.072	1.01 ± 0.044	0.994 ± 0.04
UniProt Q9NW81 and related entries	1.01 ± 0.067	1.01 ± 0.032	0.981 ± 0.024	1.03 ± 0.06	1.04 ± 0.017	1.06 ± 0.059

A different layout for some results above:
UniProt Q9NZ01
  NP40-soluble protein abundance (concentration: 1mM): 1.03 ± 0.15; NP40-soluble protein abundance (concentration: 2mM): 0.976 ± 0.097; NP40-soluble protein abundance (concentration: 4mM): 0.964 ± 0.076; NP40-soluble protein abundance (concentration: 6mM): 0.942 ± 0.076; NP40-soluble protein abundance (concentration: 8mM): 1.04 ± 0.028; NP40-soluble protein abundance (concentration: 10mM): 1.02 ± 0.09
BIN3 (UniProt Q9NQY0)
  NP40-soluble protein abundance (concentration: 1mM): 0.933 ± 0.11; NP40-soluble protein abundance (concentration: 2mM): 0.962 ± 0.041; NP40-soluble protein abundance (concentration: 4mM): 0.989 ± 0.14; NP40-soluble protein abundance (concentration: 6mM): 0.974 ± 0.16; NP40-soluble protein abundance (concentration: 8mM): 0.934 ± 0.12; NP40-soluble protein abundance (concentration: 10mM): 0.866 ± 0.19

(cont.)

Target	NP40-soluble protein abundance (concentration: 1mM)	NP40-soluble protein abundance (concentration: 2mM)	NP40-soluble protein abundance (concentration: 4mM)	NP40-soluble protein abundance (concentration: 6mM)	NP40-soluble protein abundance (concentration: 8mM)	NP40-soluble protein abundance (concentration: 10mM)
UCKL1 (UniProt Q9NWZ5)	0.99 ± 0.014	0.962 ± 0.02	0.971 ± 0.017	0.899 ± 0.019	0.938 ± 0.025	0.95 ± 0.071
UniProt Q9NYU2 and related entries	1.04 ± 0.09	1 ± 0.079	0.994 ± 0.06	0.96 ± 0.095	1.03 ± 0.055	0.985 ± 0.065
RBM28 (UniProt Q9NW13)	1.07 ± 0.047	1.12 ± 0.024	1.15 ± 0.043	1.23 ± 0.03	1.21 ± 0.025	1.3 ± 0.023
PDRG1 (UniProt Q9NUG6)	0.997 ± 0.066	0.947 ± 0.035	0.942 ± 0.049	0.965 ± 0.091	1.01 ± 0.034	0.892 ± 0.081
UniProt Q9NQ11 and related entries	0.92 ± 0.1	0.942 ± 0.047	0.957 ± 0.13	0.96 ± 0.15	0.895 ± 0.11	0.942 ± 0.14
ABHD10 (UniProt Q9NUJ1)	1.03 ± 0.13	1.01 ± 0.084	0.972 ± 0.053	0.952 ± 0.083	0.978 ± 0.044	0.985 ± 0.054
PNO1 (UniProt Q9NRX1)	0.966 ± 0.047	1.06 ± 0.095	1.04 ± 0.11	1.13 ± 0.12	1.13 ± 0.14	1.29 ± 0.19
UniProt Q9P0B6	0.863 ± 0.17	0.854 ± 0.058	0.791 ± 0.093	0.782 ± 0.16	0.733 ± 0.047	0.58 ± 0.29
LYAR (UniProt Q9NX58)	0.976 ± 0.07	0.981 ± 0.092	1.07 ± 0.049	1.1 ± 0.026	1.07 ± 0.035	1.25 ± 0.028
UniProt Q9P0K8 and related entries	0.881 ± 0.04	0.899 ± 0.097	0.913 ± 0.051	0.911 ± 0.12	0.856 ± 0.098	0.842 ± 0.088
TMEM106B (UniProt Q9NUM4)	0.909 ± 0.11	1.01 ± 0.067	1.03 ± 0.061	0.97 ± 0.087	0.943 ± 0.055	0.96 ± 0.052
KLHL11 (UniProt Q9NVR0)	1.09 ± 0.11	1.07 ± 0.14	1.02 ± 0.12	0.977 ± 0.13	1.1 ± 0.15	0.982 ± 0.085
UniProt Q9P1F3	0.966 ± 0.18	1.04 ± 0.096	0.962 ± 0.21	0.997 ± 0.12	0.806 ± 0.15	0.835 ± 0.055
UniProt Q9NPA8 and related entries	0.951 ± 0.19	0.983 ± 0.21	0.909 ± 0.2	0.998 ± 0.21	0.865 ± 0.11	0.915 ± 0.17
UniProt Q9NWF9 and related entries	0.88 ± 0.081	0.914 ± 0.061	0.944 ± 0.063	0.988 ± 0.09	0.96 ± 0.048	0.981 ± 0.043
UniProt Q9NY93 and related entries	0.995 ± 0.046	1.05 ± 0.044	1.08 ± 0.052	1.06 ± 0.042	1.03 ± 0.036	1.11 ± 0.11
NANS (UniProt Q9NR45)	1.02 ± 0.02	0.988 ± 0.05	0.958 ± 0.027	0.974 ± 0.064	0.982 ± 0.04	0.947 ± 0.054
THYN1 (UniProt Q9P016)	1.01 ± 0.097	1.04 ± 0.029	1.04 ± 0.049	1.15 ± 0.043	1.09 ± 0.016	1.07 ± 0.094
MDN1 (UniProt Q9NU22)	0.859 ± 0.025	0.856 ± 0.018	0.895 ± 0.022	0.885 ± 0.048	0.968 ± 0.03	0.975 ± 0.036
CNOT2 (UniProt Q9NZN8)	1.17 ± 0.018	1.18 ± 0.023	1.23 ± 0.043	1.32 ± 0.092	1.28 ± 0.035	1.32 ± 0.026
CCDC59 (UniProt Q9P031)	0.975 ± 0.12	0.978 ± 0.095	0.969 ± 0.082	1.02 ± 0.089	0.965 ± 0.045	0.933 ± 0.12
UniProt Q9NQZ6 and related entries	0.9474 ± 0.0076	0.923 ± 0.034	1.03 ± 0.025	1.02 ± 0.065	0.957 ± 0.019	0.918 ± 0.086
MYO5C (UniProt Q9NQX4)	0.997 ± 0.13	1.01 ± 0.17	1.09 ± 0.14	1.05 ± 0.085	1.13 ± 0.27	1.1 ± 0.31
DPP3 (UniProt Q9NY33)	0.999 ± 0.063	0.971 ± 0.067	0.932 ± 0.046	0.946 ± 0.12	0.956 ± 0.032	0.938 ± 0.056
